The target of the assay is Flag-tagged full-length CHDP-1 (C. elegans) (UniProt P91027). In words: co-IP; HEK293T cells co-transfected with Flag- and Myc-tagged constructs; lysates incubated with anti-FLAG M2 affinity gel beads at 4 °C overnight, washed three times, immunoblot. A general note: Immunoblotting shows a protein as a band on a membrane.

No constants are given. Whether binding was seen depends on the method and setting. In cells and extracts the contact can be indirect. Some results given as binding are weak or reduced against the parent protein; the word gives no strength. Sequences can lack the tags named with a protein.

B1: Flag-tagged full-length CHDP-1 (protein, UniProt P91027 1-338)
chain: MSEEIKKIEEVAEQDKAPKVPTTEPPVDVPAPVTEEAPKVEEAVAEIAAPAAAEGETATAAAAAPEEKKKSGGVARRFTFNKRWGKHRDAEASTPKEPEAPKDPKEDVLGWIAQQIPQAVHKANYQVIDWVQKTAIPEEGERKTIPGKDQATTRNQFIGFFKDGDVLAKLANALEPGAVEVAAAEENADAAAQKEVQKKNIDAFGAWAQKTLGTEAAPVTNEDLLEKGKAGYTAVFQTLWQLGVQAKEKFDKEGFNVDTIVQLANSVVKSGLLTTILGFFRRNRQAAAAVEEPKDETAAAEGAGEAKEEGATGEVADTADEPVAVKQETSAPAAVAAN
Turning to B1, the binding result is listed as “binds”.

B2: CHDP-1 CH domain fragment (AA 121-242) (domain or fragment, UniProt P91027 121-242)
chain: HKANYQVIDWVQKTAIPEEGERKTIPGKDQATTRNQFIGFFKDGDVLAKLANALEPGAVEVAAAEENADAAAQKEVQKKNIDAFGAWAQKTLGTEAAPVTNEDLLEKGKAGYTAVFQTLWQL
Take B2: the binding result is given as “binds”.

The values above are taken from publication PMC4944944.
